{"sequences": {"note": "By UniProt entry, the sequences of proteins in these tests, tags left out.", "UniProt Q8NER1, whole entry, looked up": "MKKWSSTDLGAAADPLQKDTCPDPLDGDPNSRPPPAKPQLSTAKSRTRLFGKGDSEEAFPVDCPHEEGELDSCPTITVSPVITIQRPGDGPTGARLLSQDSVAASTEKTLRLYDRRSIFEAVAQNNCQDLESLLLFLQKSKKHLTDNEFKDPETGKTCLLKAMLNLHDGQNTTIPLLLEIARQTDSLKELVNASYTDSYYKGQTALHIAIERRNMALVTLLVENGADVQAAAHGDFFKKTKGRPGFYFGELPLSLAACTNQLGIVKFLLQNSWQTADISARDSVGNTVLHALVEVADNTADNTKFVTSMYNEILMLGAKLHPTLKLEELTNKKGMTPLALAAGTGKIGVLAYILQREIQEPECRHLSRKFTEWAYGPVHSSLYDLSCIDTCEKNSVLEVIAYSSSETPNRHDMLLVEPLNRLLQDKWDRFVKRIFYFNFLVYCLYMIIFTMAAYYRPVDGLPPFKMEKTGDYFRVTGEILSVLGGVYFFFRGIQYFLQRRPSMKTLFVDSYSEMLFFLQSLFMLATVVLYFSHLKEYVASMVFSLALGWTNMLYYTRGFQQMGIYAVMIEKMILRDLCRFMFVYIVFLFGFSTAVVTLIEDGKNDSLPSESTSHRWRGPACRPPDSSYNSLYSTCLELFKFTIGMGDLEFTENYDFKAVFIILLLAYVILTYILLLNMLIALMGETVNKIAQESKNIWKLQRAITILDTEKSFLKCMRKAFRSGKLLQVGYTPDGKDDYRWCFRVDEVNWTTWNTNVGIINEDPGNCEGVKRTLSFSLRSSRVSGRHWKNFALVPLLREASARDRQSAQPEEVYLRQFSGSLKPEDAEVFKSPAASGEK"}, "source": "PubChem BioAssay AID540275", "about": "(National Center for Advancing Translational Sciences (NCATS), 2011)", "note": "Where “and” joins values, the source holds several entries; their conditions need not be identical. Equal entries are not always repeated. Among all 320,000 compounds or so, about 620 (0.19%) were called active. The shares of active, inactive and inconclusive entries below differ from those in the screen. Cut-off read from the data, not from the text of the source: active = activation above about 80%; inconclusive = between about 30% and that limit; inactive = weaker than that.", "data": [{"biological_target": "Transient receptor potential cation channel subfamily V member 1 (Homo sapiens) (UniProt Q8NER1)", "assay": "HTS Assay for Compounds that Act as Agonists of the Vanilloid Receptor 1; note: 0% is about no effect", "details": "TRPV1-expressing cells, Fluo-8 calcium influx, agonist mode; at 8.33 µM, hits give high values", "procedure,_shortened": "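Cells expressing TRPV1 were dye-loaded with Fluo-8 and read kinetically: 10 s baseline, 3 min after compound (agonist portion), then 2 min after EC20 capsaicin (allosteric enhancer portion). Calcium-bound dye fluorescence at 480/520 nm.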", "values": [{"compound": "Cc1ccc(C)n1-c1c(C(=O)NN)cnn1-c1ccccc1", "activation": "inconclusive: 37.2%"}, {"compound": "Cc1nn(C)c(NC(=O)c2ccc(Cl)cc2Cl)c1Br", "activation": "inconclusive: 68.4%"}, {"compound": "CC(C)COc1ccc(CNC(=S)NCc2ccccc2)cc1", "activation": "inconclusive: 59.6%"}, {"compound": "COc1ccc(CC(=O)NCCS(=O)(=O)N2CCN(c3ccccc3)CC2)cc1OC", "activation": "inconclusive: 32.3%"}, {"compound": "CSc1ccc(C(=O)/C=C/c2ccc(N)cc2)cc1", "activation": "inconclusive: 49.4%"}, {"compound": "O=C(NCc1ccccn1)c1cn(-c2ccccc2)nc1-c1ccc(Cl)cc1", "activation": "inconclusive: 48.2%"}, {"compound": "CC(NC(=O)Cc1ccsc1)c1ccc(Cl)cc1Cl", "note": "(stereo not given)", "activation": "inconclusive: 52.2%"}, {"compound": "C=CCNCc1ccc(C(=O)NCCCCCCC)cc1[N+](=O)[O-]", "activation": "inconclusive: 31.6%"}, {"compound": "CC(C)(C)n1ncc2c(=O)n(Cc3ccc(Cl)c(Cl)c3)cnc21", "activation": "inconclusive: 37%"}, {"compound": "c1ccc(CSCc2nc3ccccc3[nH]2)cc1", "activation": "inconclusive: 49.5%"}, {"compound": "CC(=O)NCCc1nc2ccccc2n1Cc1cccc(C)c1", "activation": "inconclusive: 51.6%"}, {"compound": "O=C(CSc1nc2ccccc2n1CCc1ccccc1)N1CCOCC1", "activation": "inconclusive: 74.3%"}, {"compound": "Cc1ccc(NC(=O)c2ccco2)c(NC(=O)c2ccc(Cl)cc2)c1", "activation": "inconclusive: 56%"}, {"compound": "c1ccc(-c2n[nH]c3ccccc23)cc1", "activation": "inactive: 3.71%"}, {"compound": "CC(=O)c1cc2c(cc1N/C(=N/S(=O)(=O)c1ccc(C)cc1)c1ccccc1)OCO2", "activation": "inconclusive: 36.8%"}, {"compound": "CCOC(=O)N1CCN(S(=O)(=O)c2ccc(C(=O)NNc3nc4c(C)cc(C)cc4s3)cc2)CC1", "activation": "inactive: -1.01%"}, {"compound": "CCc1noc(C)c1C(=O)N(CCC(C)C)c1c(N)n(Cc2ccccc2)c(=O)[nH]c1=O", "activation": "inactive: -0.187%"}, {"compound": "Cc1cccc(C(=O)O/N=C2\\CCS(=O)(=O)c3sccc32)c1", "activation": "inconclusive: 71%"}, {"compound": "COc1ccc(OCCNC(=O)/C=C/c2ccc([N+](=O)[O-])cc2)cc1", "activation": "inconclusive: 39.6%"}, {"compound": "Cc1cc(N2CCN(c3ccccc3)CC2)n2cc(-c3ccccc3)nc2n1", "activation": "inconclusive: 79.1%"}, {"compound": "NS(=O)(=O)c1ccc(NC(=S)NC(=O)c2ccco2)cc1", "activation": "inactive: 1.34% and inactive: 2.18%"}, {"compound": "Cc1ccccc1S(=O)(=O)c1c(C)cc(C)n(CC(C)C)c1=O", "activation": "inconclusive: 31.3%"}, {"compound": "CS(=O)(=O)c1ccc(Sc2nc3ccccc3[nH]2)c([N+](=O)[O-])c1", "activation": "inactive: 2.22%"}, {"compound": "O=C(c1cccc([N+](=O)[O-])c1)N1CCN(Cc2ccc3c(c2)OCO3)CC1", "activation": "inactive: 2.09%"}, {"compound": "O=C(c1ccccc1)c1cc(-c2ccccn2)c(N2CCOCC2)s1", "activation": "inconclusive: 35%"}, {"compound": "COc1ccc(NC(=O)CC23CC4CC(CC(C4)C2)C3)cn1", "activation": "inconclusive: 35.8%"}, {"compound": "Cc1ccc2[nH]c3c(c2c1)CN(C(=O)CN1CCN(Cc2ccc4c(c2)OCO4)CC1)CC3", "activation": "inconclusive: 47.2%"}, {"compound": "Cc1ccc(S(=O)(=O)NCCNC(=O)c2cc(OCC(F)(F)F)ccc2OCC(F)(F)F)cc1", "activation": "inconclusive: 43.2%"}, {"compound": "Cc1cc(-c2ccc(C)c(S(=O)(=O)N3CCN(c4ccccn4)CC3)c2)on1", "activation": "inconclusive: 30.4%"}, {"compound": "CCn1nc(C(=O)Nc2nc3ccccc3[nH]2)c2ccccc2c1=O", "activation": "inactive: 6.54%"}, {"compound": "O=C(Nc1ccc2oc(-c3ccccc3)nc2c1)c1cccs1", "activation": "inconclusive: 54.5%"}, {"compound": "Cc1cccc(NC(=O)CC2c3ccccc3Oc3ccccc32)c1", "activation": "inconclusive: 42.5%"}, {"compound": "COCCNc1ccc([N+](=O)[O-])cc1C(=O)Nc1cccc(C)n1", "activation": "inconclusive: 72.8%"}, {"compound": "C=CCn1c(SCc2ccc(Cl)cc2)nc2cc(C(=O)N3CCC(C(N)=O)CC3)ccc2c1=O", "activation": "inconclusive: 77.9%"}, {"compound": "CS(=O)(=O)N(Cc1ccc(C(=O)NN=C2CCCC2)cc1)c1ccccc1", "activation": "inactive: 6.75%"}, {"compound": "OCCN(Cc1ccccc1)CC(O)COc1ccc2c(c1)OCO2", "note": "(stereo not given)", "activation": "inactive: 5.13%"}, {"compound": "O=C(/C=C/c1ccccc1)c1ccc2c(c1)OCO2", "activation": "inconclusive: 68.7%"}, {"compound": "Cc1ccc(OCCC(=O)Nc2ccc(F)c(F)c2)cc1", "activation": "inconclusive: 47.4%"}, {"compound": "CCNC(=O)COc1cccc2ccccc12", "activation": "inconclusive: 35.3%"}, {"compound": "COc1ccccc1CNC(=S)NC1CCCCC1", "activation": "inconclusive: 42.3%"}, {"compound": "CN1C(=O)CC(N2CCN(c3ccc(Cl)cc3)CC2)C1=O", "note": "(stereo not given)", "activation": "inconclusive: 31.8%"}, {"compound": "Cc1cccc(N2CCN(c3nnc(C(F)(F)F)s3)CC2)c1", "activation": "inconclusive: 58%"}, {"compound": "CCN(CC(=O)NCc1ccc(Cl)cc1)C(=O)CN1C(=O)NC(CC)(c2ccccc2)C1=O", "note": "(stereo not given)", "activation": "inconclusive: 30.4%"}, {"compound": "S=C(NNc1cccc(Cl)c1)NC1CCCCC1", "activation": "inconclusive: 39.2%"}, {"compound": "COc1ccc(NC(=O)c2nc3ccccc3s2)cc1", "activation": "inconclusive: 67.2%"}, {"compound": "CC(C)c1cc(NCC2CCCO2)n2c(nc3ccccc32)c1C#N", "note": "(stereo not given)", "activation": "inactive: 7.02%"}, {"compound": "COc1ccc(/C=N/NC(=O)c2cccc(OC(F)(F)C(F)F)c2)cc1O", "activation": "inconclusive: 45.5%"}, {"compound": "Cc1ccc(O)c(NC(=S)NC(=O)Cc2ccc(Cl)cc2)c1", "activation": "inactive: 11.2%"}, {"compound": "Cc1ccc(NC(=O)CCSc2ccccc2)c(C)c1", "activation": "inactive: 0.0094%"}, {"compound": "O=C(Nc1cccnc1)c1ccc(-c2ccccc2)cc1", "activation": "active: 87.5%"}, {"compound": "COc1cc(OC)cc(-c2cc3nc(C)c(CCC(=O)Nc4nc(C)cs4)c(C)n3n2)c1", "activation": "inconclusive: 42%"}, {"compound": "CN(c1cccc(NC(=O)c2ccc(N(C)S(=O)(=O)c3ccccc3)cc2)c1)S(C)(=O)=O", "activation": "inactive: 13.4%"}, {"compound": "Cc1ccccc1N1CCN(C(=O)NCc2cccc(Cl)c2)CC1", "activation": "inconclusive: 32.5%"}, {"compound": "COc1cccc(-c2nn(-c3ccccc3)cc2CN(C)Cc2ccon2)c1", "activation": "inconclusive: 48.9%"}, {"compound": "CCN(CC(=O)Nc1sc2c(c1C#N)CCC(C)C2)CC(=O)NC1CCS(=O)(=O)C1", "note": "(stereo not given)", "activation": "inactive: 11.1%"}, {"compound": "Cc1oc(S(=O)(=O)N(C)C)cc1C(=O)Nc1ccc(Cl)cc1", "activation": "inconclusive: 31.1%"}, {"compound": "CSc1ccccc1C(=O)NCCSc1ccc(C)cc1", "activation": "inconclusive: 45.5%"}, {"compound": "Cc1ccc(C)c(NS(=O)(=O)c2cc(C(=O)NCc3ccncc3)ccc2C)c1", "activation": "inconclusive: 40.7%"}, {"compound": "CC(Oc1ccc(F)cc1)C(=O)/C=C\\N(C)C", "note": "(stereo not given)", "activation": "inconclusive: 67.8%"}, {"compound": "CC(C)(C)C(=O)COC(=O)c1c2c(nc3ccccc13)CCC2", "activation": "inconclusive: 32.2%"}, {"compound": "Cc1nc(Nc2ccc(Cl)cc2Cl)sc1C(=O)Nc1ccccc1", "activation": "inconclusive: 62.6%"}, {"compound": "COc1ccc(NC(=O)N2CCN(c3ccc([N+](=O)[O-])cc3)CC2)cc1OC", "activation": "inconclusive: 47.4%"}, {"compound": "N=c1c(C(=O)NCC2CCCO2)cc2c(=O)n3ccccc3nc2n1Cc1ccco1", "note": "(stereo not given)", "activation": "inconclusive: 33.1%"}, {"compound": "CN(Cc1ccccc1O)CC1CCCN(CCc2ccc(Cl)cc2)C1", "note": "(stereo not given)", "activation": "inactive: 1.57%"}, {"compound": "Cc1ccc2ncnc(Nc3ccccc3)c2c1", "activation": "inconclusive: 40.7%"}, {"compound": "Cc1ccc(CN2CCC(C(=O)Nc3cccc(-c4cccc(F)c4)c3)CC2)o1", "activation": "inactive: 2.87%"}, {"compound": "CC(Oc1ccc(F)cc1)C(=O)Nc1cc(Cl)ccc1-n1cncn1", "note": "(stereo not given)", "activation": "inconclusive: 44.5%"}, {"compound": "COc1ccccc1NC=C1C(=O)OC2(CCCCC2)OC1=O", "activation": "inconclusive: 35.1%"}, {"compound": "CNC(=O)c1ccccc1NC(=O)c1cccc(S(=O)(=O)N2CCC(C)CC2)c1", "activation": "inconclusive: 73.3%"}, {"compound": "O=C(NCC1CCCO1)c1ccc(Cl)c(S(=O)(=O)N2CCCCC2)c1", "note": "(stereo not given)", "activation": "inactive: 6.81%"}, {"compound": "COc1cccc(OCC(=O)Nc2ccccc2C(N)=O)c1", "activation": "inconclusive: 56.9%"}, {"compound": "CC(NC(=O)c1ccc2ccccc2n1)c1ccccc1", "note": "(stereo not given)", "activation": "inconclusive: 30.1%"}, {"compound": "CCCCOc1ccc(C(=O)NCCOc2cccc(OC)c2)cc1", "activation": "inconclusive: 40.5%"}, {"compound": "CCCC[C@H](CC(=O)c1ccccc1)[C@@H](OC(C)=O)C(=O)Oc1c(C(C)C)cccc1C(C)C", "activation": "inconclusive: 48.7%"}, {"compound": "CCOc1ccc(Cl)cc1S(=O)(=O)n1cnc2cc(C)c(C)cc21", "activation": "inconclusive: 46.5%"}, {"compound": "Cc1cc2ncn(CCCCOc3ccccc3)c2cc1C", "activation": "inconclusive: 39.7%"}, {"compound": "O=C(Nc1ccc(S(=O)(=O)N2CCCCC2)cc1)c1ccccc1F", "activation": "inconclusive: 42.8%"}, {"compound": "COc1ccc(N)c2c1C(=O)c1ccccc1C2=O", "activation": "inactive: -5.21%"}, {"compound": "O=C(/C=C/c1ccccc1Cl)Nc1ccc2c(c1)C(=O)NC2=O", "activation": "inactive: 26.8%"}, {"compound": "NS(=O)(=O)c1ccc(NC(=O)COC(=O)c2cn(-c3ccccc3)nc2-c2ccc(F)cc2)cc1", "activation": "inconclusive: 51.2%"}, {"compound": "Cc1ccc(S(=O)(=O)N(CC(=O)NCCSc2ccccn2)c2ccc(C)c(C)c2)cc1", "activation": "inconclusive: 37%"}, {"compound": "Cc1ccc(NC(=O)CSCC(=O)Nc2cc(C(F)(F)F)ccc2N2CCOCC2)cc1", "activation": "inconclusive: 34.8%"}, {"compound": "O=C(CNCc1ccccc1)Nc1ccc(Oc2ccccc2)cc1", "activation": "inconclusive: 58.1%"}, {"compound": "CCc1ccc(-c2nc(CN3CCC(C(=O)N4CCN(c5ccccn5)CC4)CC3)c(C)o2)cc1", "activation": "inactive: -1.65%"}, {"compound": "CSc1cccc(NC(=O)CCCOc2ccccc2)c1", "activation": "inconclusive: 32.3%"}, {"compound": "C=C(CC1([C@@H](NP(=O)(c2ccccc2)c2ccccc2)[C@H]2C[C@@H]2CCCC)CC1)c1ccccc1", "activation": "inconclusive: 45.9%"}, {"compound": "C/C(=N/NC(=O)c1ccc(NC(=O)c2ccc(F)cc2)cc1)c1ccccc1", "activation": "inconclusive: 56.5%"}, {"compound": "C#CCOC(=O)CCCC(=O)NCCCCCCCC", "activation": "inconclusive: 31%"}, {"compound": "CCOC(=O)c1cnc2ccc(C)cc2c1Sc1ccc(F)cc1", "activation": "inconclusive: 44.1%"}, {"compound": "CCc1ccccc1N=C1S/C(=C/c2ccccc2OCC(=O)N2CCOCC2)C(=O)N1C", "activation": "inconclusive: 38.9%"}]}]}
